Part of at least one peptide drawing is inferred or uncertain, most often the ends. Where no end group is shown, it is not given here.
Assays:
platelet-rich plasma = test: Inhibition of asialo-vWF-induced aggregation (Example 4); assay type: cell-based; conditions: peptide concentration 55 μM, asialo-vWF 15 μg/ml
vWF-GPIb interaction = target: T1, vWF-GPIb interaction (Homo sapiens, UniProt P04275+P07359); test: Inhibition of asialo-vWF binding to fresh platelets (Example 2); conditions: 125I-asialo-vWF 5 μg/ml
T1 construct: endogenous in cells; host or cells: fresh or formalin-fixed platelets
Protocol: Fresh platelets were prepared by drawing blood into a solution of 11 mM trisodium citrate and 2 mM EDTA. Platelet-rich plasma was then prepared by differential centrifugation. The platelet count was then adjusted to 1×10^11 /l. Peptides were then added to various concentrations and ^125 I-asialo-vWF was then added at a final concentration of 5 μg/ml. After incubation for 30 minutes at room temperature, bound and free vWF ligand were separated by centrifuging 50 μl of the mixture through 300 μl of 20% sucrose at 12,000 g for 4 minutes. The platelet pellet was then separated from the rest of the mixture to determine platelet-bound radioactivity. Non-specific binding was defined as the residual binding of ^125 I- asialo-vWF in the presence of a 50-fold excess of unlabeled vWF but in the absence of any peptides.
Percent inhibition with a given peptide was calculated by dividing the specific cpm obtained when various concentrations of peptide were added by the specific cpm in the absence of peptide.

Chains of the proteins cited; added tags and fusions are not shown. Residues count along the entry.
UniProt P04275, 764-2813 limits assumed: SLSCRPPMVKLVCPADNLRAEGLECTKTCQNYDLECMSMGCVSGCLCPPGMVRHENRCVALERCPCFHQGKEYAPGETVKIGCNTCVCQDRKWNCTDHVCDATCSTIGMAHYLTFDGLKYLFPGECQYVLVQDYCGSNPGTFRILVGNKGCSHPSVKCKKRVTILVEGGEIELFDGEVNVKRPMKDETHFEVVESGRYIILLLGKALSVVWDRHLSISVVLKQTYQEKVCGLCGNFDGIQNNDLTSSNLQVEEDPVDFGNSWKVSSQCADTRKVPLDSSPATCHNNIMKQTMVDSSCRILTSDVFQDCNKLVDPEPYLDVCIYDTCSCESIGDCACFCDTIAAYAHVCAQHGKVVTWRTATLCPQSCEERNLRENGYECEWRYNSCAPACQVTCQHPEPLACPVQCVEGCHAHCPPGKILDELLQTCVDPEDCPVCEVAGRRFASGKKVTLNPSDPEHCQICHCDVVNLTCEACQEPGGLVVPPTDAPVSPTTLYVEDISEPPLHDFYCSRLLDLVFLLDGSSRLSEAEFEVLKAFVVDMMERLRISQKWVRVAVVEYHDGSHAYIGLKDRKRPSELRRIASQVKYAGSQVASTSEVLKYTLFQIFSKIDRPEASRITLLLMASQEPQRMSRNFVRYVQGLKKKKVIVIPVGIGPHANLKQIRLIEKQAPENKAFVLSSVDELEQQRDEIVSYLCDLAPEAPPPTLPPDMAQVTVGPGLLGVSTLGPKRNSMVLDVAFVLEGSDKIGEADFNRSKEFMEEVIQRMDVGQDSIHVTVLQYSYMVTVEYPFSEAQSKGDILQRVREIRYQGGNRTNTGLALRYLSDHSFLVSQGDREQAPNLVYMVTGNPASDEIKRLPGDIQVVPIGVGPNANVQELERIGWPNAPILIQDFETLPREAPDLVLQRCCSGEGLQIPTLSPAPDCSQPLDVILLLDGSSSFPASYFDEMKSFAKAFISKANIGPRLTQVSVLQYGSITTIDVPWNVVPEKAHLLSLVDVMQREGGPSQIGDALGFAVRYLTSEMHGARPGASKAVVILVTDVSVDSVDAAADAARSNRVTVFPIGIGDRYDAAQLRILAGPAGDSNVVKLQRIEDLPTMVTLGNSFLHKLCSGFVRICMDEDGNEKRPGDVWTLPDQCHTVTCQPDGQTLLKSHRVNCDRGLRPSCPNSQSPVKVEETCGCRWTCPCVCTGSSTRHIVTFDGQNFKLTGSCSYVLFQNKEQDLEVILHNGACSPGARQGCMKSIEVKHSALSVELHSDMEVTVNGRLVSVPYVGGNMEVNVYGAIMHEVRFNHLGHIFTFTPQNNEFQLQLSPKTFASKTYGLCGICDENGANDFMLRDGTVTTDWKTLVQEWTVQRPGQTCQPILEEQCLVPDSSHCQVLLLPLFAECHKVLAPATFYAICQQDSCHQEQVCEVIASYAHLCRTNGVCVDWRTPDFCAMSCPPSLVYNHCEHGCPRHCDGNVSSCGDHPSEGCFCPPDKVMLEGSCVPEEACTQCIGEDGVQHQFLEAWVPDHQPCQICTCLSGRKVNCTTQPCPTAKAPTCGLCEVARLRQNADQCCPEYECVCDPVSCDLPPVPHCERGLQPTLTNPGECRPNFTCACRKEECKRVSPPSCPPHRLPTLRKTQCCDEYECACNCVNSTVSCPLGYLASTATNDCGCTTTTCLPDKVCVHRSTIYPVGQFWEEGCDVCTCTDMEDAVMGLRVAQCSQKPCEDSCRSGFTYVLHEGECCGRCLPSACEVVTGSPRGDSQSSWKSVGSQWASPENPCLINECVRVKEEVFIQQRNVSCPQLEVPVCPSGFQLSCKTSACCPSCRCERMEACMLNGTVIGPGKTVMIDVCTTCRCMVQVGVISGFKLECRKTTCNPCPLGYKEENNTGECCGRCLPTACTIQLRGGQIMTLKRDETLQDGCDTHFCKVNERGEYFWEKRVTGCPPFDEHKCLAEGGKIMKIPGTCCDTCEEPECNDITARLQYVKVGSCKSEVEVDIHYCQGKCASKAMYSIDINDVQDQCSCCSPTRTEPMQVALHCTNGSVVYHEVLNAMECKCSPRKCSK
UniProt P07359, 17-652: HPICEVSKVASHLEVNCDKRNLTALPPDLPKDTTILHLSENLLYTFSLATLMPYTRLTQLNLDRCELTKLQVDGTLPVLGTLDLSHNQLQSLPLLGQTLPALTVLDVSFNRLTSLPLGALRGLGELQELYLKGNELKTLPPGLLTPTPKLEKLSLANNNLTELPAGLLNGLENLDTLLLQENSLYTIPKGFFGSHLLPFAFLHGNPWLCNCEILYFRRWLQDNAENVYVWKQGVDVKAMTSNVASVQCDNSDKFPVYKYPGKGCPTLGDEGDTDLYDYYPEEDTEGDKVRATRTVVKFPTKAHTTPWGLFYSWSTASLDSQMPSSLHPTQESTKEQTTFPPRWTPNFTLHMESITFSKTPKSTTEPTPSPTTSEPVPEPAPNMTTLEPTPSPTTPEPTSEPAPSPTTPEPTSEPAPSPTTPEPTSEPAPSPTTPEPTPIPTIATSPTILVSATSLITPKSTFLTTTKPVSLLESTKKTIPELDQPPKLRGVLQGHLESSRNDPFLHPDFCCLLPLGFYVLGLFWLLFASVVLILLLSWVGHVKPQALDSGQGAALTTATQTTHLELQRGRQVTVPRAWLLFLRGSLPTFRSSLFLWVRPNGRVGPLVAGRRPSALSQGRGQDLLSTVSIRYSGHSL

washed platelets = assay type: cell-based; conditions: peptide concentration 100 μM

Sequence: RRRRRRRRGDV [(R)8 GDV]
- inhibition of asialo-vWF-induced aggregation (platelet-rich plasma): 92%
- concentration at which complete inhibition was seen (vWF-GPIb interaction): 24 µM
- inhibition of ristocetin-induced aggregation (washed platelets): 70%

Reference: patent US5340727A, “GPIbα fragments and recombinant DNA expression vectors” (The Scripps Research Institute, priority 1990, dated 1994)
